No constants are given. Whether binding was seen depends on the method and setting. Binding seen in cells or lysates may run through a third protein. A yes stands for co-enrichment or nearness to the bait. Other partners may have been found. For part of these data: Tags and fused reporters may be left off the sequences shown.
T1: Zuo1 with a C-terminal 3X-FLAG tag (S. cerevisiae) (UniProt P32527)
T1 sequence: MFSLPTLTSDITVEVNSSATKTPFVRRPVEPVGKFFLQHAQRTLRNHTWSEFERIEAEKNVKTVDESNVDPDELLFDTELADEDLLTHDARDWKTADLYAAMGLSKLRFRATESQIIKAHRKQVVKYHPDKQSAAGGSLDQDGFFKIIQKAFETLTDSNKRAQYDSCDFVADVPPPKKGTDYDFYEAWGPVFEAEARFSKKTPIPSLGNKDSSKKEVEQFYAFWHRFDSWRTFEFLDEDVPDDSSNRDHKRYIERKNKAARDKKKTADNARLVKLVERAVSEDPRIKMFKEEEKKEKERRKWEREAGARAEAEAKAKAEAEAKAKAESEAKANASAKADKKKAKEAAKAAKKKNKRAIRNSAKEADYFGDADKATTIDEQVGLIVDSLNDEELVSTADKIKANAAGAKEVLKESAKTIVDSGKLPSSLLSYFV

Protein sequences, listed by entry. Tags and fused reporters are not part of them.
UniProt P11484: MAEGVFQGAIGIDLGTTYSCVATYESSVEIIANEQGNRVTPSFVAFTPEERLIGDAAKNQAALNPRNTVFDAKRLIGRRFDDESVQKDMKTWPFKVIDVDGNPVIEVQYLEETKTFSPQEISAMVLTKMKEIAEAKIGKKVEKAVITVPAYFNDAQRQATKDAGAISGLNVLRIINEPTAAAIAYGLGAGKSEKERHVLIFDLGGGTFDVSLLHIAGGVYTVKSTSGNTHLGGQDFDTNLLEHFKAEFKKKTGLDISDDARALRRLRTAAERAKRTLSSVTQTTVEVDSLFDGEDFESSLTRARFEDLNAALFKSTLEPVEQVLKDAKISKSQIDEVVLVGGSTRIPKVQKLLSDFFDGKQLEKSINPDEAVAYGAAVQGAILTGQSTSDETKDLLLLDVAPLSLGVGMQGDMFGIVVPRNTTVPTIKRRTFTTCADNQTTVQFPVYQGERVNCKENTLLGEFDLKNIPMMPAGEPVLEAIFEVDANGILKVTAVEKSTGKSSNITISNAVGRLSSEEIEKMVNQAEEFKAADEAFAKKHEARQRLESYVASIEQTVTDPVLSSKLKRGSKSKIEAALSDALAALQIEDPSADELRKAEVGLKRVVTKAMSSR

T2: Strep-Pmt1 nascent chain stalled at the triple-proline motif (PPP construct) (S. cerevisiae) (UniProt P33775)
T2 sequence (chain, nascent chain-tRNA (NC-tRNA)): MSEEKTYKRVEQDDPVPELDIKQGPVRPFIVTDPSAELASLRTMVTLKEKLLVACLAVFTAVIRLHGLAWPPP

B1: Zuo1 of recombinant RAC (protein, UniProt P32527 1-433)
chain: T1 sequence

Columns and labels:
[1] = target: T1, Zuo1 with a C-terminal 3X-FLAG tag (S. cerevisiae); assay: affinity purification with mass spectrometry; Zuo1-3X-FLAG captured from extracts of log-phase yeast on Anti-FLAG M2 Affinity Gel, 4 °C, 40 mM HEPES-KOH pH 7.5, 100 mM KCl, 10 mM MgCl2, eluted with flag peptides; SDS-PAGE bands and sample identified by MS; endogenous 80S-RAC complexes
[2] = target: T2, Strep-Pmt1 nascent chain stalled at the triple-proline motif (PPP construct) (S. cerevisiae); assay: affinity purification with mass spectrometry; RNCs captured by the Strep tag of the nascent chain on Strep-Tactin Sepharose, 4 °C, from crude ribosomal pellets of Δdom-PPP cells; endogenous factors found by SDS-PAGE and MS
[3] = target: T2, Strep-Pmt1 nascent chain stalled at the triple-proline motif (PPP construct) (S. cerevisiae); assay: affinity purification with mass spectrometry; RNCs captured by the Strep tag of the nascent chain on Strep-Tactin Sepharose, 4 °C; crude ribosomal pellets of Δdom-PPP cells dissolved with 6.4 μM recombinant RAC, 40 mM HEPES-KOH pH 7.5, 100 mM KCl, 5 mM MgCl2, cycloheximide; SDS-PAGE and MS; only the binder purified

Row | Molecule | binding [1] | binding [2] | binding [3]
1 | Ssb1 (endogenous) (from UniProt P11484 1-613) | binds | binds | 
2 | B1 |  |  | binds
